Chains of the proteins cited; added tags and fusions are not shown.
UniProt Q13114: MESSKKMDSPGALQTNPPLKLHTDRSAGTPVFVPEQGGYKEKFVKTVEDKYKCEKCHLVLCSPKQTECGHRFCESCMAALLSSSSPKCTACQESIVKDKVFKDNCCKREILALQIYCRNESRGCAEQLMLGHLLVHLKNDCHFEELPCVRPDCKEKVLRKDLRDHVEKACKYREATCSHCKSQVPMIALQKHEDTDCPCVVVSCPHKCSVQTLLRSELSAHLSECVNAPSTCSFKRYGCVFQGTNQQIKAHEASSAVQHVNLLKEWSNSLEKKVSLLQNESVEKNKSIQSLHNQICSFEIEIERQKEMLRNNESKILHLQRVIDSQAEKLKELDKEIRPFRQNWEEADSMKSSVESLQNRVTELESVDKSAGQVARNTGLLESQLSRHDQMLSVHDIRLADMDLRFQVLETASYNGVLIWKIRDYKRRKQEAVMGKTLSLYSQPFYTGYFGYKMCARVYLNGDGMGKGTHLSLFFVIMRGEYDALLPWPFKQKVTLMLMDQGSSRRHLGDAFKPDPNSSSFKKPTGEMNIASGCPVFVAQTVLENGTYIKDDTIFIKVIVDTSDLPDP
UniProt Q9BWD1: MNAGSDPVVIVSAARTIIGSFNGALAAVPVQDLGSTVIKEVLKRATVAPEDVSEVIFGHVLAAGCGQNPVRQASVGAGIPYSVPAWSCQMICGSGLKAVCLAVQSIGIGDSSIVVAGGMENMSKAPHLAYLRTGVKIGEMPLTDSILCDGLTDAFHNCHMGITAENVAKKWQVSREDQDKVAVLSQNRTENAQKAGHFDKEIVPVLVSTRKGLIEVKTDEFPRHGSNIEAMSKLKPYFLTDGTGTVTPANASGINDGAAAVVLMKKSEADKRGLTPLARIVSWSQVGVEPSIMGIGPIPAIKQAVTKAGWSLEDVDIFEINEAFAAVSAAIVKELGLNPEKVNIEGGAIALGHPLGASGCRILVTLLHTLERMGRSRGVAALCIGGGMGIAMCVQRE
UniProt Q01518: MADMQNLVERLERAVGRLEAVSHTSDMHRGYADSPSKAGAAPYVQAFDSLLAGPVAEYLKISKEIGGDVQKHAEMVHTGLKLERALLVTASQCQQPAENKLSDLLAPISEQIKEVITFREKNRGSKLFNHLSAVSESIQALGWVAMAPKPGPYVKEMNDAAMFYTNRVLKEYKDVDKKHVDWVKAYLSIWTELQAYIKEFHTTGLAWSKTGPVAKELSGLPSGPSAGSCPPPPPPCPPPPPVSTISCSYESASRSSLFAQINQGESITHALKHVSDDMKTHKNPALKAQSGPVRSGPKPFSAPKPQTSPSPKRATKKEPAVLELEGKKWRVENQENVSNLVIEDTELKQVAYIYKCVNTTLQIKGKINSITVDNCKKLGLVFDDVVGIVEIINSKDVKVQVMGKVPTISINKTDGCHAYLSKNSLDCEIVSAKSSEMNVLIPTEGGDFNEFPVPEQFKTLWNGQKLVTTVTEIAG
UniProt P60953: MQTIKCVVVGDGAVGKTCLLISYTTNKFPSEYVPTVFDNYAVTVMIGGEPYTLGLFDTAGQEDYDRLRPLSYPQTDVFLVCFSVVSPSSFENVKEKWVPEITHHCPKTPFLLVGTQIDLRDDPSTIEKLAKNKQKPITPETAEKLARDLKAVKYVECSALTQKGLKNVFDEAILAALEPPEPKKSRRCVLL
UniProt P78417: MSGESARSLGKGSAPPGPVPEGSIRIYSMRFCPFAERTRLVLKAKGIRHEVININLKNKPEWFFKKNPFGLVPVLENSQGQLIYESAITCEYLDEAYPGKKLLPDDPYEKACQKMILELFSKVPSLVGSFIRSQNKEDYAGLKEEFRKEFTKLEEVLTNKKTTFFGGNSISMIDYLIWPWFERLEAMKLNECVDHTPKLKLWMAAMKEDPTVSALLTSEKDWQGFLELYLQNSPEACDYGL
UniProt P09211: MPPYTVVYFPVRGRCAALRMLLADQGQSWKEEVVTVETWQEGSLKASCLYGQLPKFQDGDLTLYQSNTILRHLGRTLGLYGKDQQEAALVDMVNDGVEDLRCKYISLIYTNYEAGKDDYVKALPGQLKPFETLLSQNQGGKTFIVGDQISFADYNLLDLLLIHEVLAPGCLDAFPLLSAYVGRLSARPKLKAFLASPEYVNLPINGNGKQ
UniProt O76083: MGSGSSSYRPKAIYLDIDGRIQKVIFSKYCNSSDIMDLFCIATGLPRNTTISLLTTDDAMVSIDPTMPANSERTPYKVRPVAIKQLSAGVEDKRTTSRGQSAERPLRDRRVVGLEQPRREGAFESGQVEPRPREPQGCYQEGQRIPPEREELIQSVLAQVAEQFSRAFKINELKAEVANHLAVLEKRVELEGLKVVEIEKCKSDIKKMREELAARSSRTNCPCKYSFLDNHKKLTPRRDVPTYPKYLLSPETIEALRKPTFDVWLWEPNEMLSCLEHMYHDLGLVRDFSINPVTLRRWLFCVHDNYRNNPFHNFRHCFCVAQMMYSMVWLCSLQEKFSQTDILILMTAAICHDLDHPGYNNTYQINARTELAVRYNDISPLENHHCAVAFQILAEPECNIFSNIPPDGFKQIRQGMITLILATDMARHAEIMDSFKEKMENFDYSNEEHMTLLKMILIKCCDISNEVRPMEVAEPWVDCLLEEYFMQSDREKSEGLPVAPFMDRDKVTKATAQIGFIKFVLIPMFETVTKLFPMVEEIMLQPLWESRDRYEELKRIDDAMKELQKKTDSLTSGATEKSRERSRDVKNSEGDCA
UniProt O00459: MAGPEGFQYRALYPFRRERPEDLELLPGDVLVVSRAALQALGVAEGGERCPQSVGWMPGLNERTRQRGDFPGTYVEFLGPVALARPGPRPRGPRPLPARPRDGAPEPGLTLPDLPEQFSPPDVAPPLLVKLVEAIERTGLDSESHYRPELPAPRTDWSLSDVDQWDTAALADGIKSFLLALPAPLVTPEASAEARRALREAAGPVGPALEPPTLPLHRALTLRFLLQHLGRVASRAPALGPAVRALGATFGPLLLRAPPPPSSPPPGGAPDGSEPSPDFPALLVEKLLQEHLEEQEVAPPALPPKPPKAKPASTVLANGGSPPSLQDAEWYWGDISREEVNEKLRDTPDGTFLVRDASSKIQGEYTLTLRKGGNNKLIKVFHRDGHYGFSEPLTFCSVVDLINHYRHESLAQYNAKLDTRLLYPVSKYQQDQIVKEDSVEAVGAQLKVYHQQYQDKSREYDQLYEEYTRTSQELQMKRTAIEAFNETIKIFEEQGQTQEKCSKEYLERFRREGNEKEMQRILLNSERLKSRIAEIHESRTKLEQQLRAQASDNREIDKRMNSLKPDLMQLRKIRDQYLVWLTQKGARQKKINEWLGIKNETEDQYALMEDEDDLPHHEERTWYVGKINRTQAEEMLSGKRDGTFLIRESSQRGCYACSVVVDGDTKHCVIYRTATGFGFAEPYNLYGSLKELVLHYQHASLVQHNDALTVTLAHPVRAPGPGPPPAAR
UniProt Q99873: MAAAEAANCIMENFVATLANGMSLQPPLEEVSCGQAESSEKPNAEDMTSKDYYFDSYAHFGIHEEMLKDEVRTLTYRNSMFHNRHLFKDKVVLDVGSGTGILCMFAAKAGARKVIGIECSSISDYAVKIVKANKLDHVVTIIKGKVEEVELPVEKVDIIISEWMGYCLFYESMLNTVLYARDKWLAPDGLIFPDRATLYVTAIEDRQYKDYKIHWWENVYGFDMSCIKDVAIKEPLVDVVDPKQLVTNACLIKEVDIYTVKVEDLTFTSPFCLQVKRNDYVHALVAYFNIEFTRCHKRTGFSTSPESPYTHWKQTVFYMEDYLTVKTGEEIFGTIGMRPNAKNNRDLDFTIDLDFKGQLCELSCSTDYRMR
UniProt Q9ULZ3: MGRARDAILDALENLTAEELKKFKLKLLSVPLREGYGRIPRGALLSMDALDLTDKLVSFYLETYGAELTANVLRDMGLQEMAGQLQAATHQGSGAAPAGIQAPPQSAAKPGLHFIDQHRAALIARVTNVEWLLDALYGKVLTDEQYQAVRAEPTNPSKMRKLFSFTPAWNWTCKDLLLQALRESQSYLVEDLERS

In publication PMC8564014:

target: TRAF3-SBP-6xHis (in transduced human MM 8226 cells) (human) (UniProt Q13114); experiment: affinity purification with mass spectrometry; mitochondria isolated from 8226 cells transduced with pUB-TRAF3-SBP-6xHis, lysed in 1% CHAPS lysis buffer; TRAF3-SBP-6xHis captured on Streptavidin-Sepharose beads, 5 washes; LC-MS/MS of gel slices; cells transduced with FLAG-TRAF3 as negative control

binding, binds:
ACAT2 (from UniProt Q9BWD1 1-397)
CAP1 (from UniProt Q01518 1-475)
CDC42 (from UniProt P60953 1-191)
CKMT1A (from UniProt P12532 40-417)
CSNK2A2, endogenous in 8226 cells (from UniProt P19784 1-350)
GPI (from UniProt P06744 1-558)
GSTO1 (from UniProt P78417 1-241)
GSTP1 (from UniProt P09211 1-210)
PDE9A (from UniProt O76083 1-593)
PIK3R2 (from UniProt O00459 1-728)
PRMT1 (from UniProt Q99873 1-371)
PYCARD (from UniProt Q9ULZ3 1-195)

No constants are given. Whether binding was seen depends on the method and setting. Binding seen in cells or lysates may run through a third protein. A yes stands for co-enrichment or nearness to the bait. Other partners may have been found.
